For 2 substances, binding results are on record in article PMC6678831.

Protein sequences, listed by entry. Tags and fused reporters are not part of them. Lines headed by an entry give the natural chain unless they say otherwise; changes in a name come on top. Chains listed by the source or under a name are the forms on record and can include a tag or linker.
UniProt P11802: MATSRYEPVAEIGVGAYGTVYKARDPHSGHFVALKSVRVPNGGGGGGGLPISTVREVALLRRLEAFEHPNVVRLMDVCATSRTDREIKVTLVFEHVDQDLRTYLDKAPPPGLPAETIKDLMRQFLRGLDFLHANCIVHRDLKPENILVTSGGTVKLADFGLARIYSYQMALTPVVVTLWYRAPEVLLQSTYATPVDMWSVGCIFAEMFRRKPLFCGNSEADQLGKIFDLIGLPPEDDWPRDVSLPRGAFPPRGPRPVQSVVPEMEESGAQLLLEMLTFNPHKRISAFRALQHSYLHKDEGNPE
UniProt Q00534: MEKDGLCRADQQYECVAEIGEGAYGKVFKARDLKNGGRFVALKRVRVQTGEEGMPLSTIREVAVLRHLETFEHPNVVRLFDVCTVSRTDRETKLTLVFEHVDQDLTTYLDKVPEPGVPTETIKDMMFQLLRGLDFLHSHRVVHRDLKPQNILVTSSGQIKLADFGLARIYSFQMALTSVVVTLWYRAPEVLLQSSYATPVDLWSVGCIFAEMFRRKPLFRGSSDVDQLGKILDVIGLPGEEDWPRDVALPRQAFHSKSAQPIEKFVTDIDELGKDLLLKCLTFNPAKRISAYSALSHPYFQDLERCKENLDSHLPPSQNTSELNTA
UniProt P06748: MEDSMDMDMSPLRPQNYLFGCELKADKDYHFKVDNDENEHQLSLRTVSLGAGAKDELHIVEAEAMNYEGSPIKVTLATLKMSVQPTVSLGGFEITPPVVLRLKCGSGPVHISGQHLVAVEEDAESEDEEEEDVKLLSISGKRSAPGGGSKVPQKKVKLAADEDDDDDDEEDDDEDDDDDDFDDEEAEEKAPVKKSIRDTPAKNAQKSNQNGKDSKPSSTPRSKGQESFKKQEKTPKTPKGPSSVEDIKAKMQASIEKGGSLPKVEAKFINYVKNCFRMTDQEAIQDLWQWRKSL
phospho-mimetic NPM/B23 mutant (Thr199D) (P06748, form named): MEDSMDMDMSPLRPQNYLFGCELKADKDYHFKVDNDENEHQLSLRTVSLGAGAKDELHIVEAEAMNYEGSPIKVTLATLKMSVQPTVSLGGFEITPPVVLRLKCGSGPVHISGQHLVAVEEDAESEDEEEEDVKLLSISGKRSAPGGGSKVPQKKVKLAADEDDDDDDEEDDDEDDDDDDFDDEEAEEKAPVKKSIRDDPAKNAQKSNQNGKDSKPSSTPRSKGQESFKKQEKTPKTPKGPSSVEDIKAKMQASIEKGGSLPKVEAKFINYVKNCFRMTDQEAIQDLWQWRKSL

Results are given in words; binding and its absence hold for the method and conditions named. In cells and extracts the contact can be indirect. Some results given as binding are weak or reduced against the parent protein; the word gives no strength.

One test has as its target HA-CDK4 (UniProt P11802). Kind of test: co-IP; ARK2 cells transiently transfected with pcDNA, HA-CDK4 or HA-CDK6 for 24 h; whole-cell lysates immunoprecipitated with anti-HA antibody; blot with anti-HA or anti-NPM/B23 (endogenous NPM/B23).
For test [1], the target named is CDK6 (human (endogenous in ARK2)) (UniProt Q00534). Kind of test: co-IP; ARK2 whole-cell lysates (WCE lysis buffer: 20 mM HEPES, 10% glycerol, 0.5% Triton X-100, 0.2 M NaCl, 1 mM EDTA, 1 mM EGTA) immunoprecipitated with anti-CDK6 antibody, protein G-sepharose, 4 °C; blot with anti-NPM/B23; both proteins endogenous; control IgG as mock; also done after 2 µM palbociclib for 24 h (interaction significantly weakened).

For test [2] the target is unchanged. Kind of test: co-IP; ARK2 cells transfected with NPM/B23 (Thr199A) or NPM/B23 (Thr199D) for 24 h; lysates immunoprecipitated with anti-CDK6 antibody (endogenous CDK6); blot with anti-CDK6 or anti-NPM/B23; control IgG as mock.

With “NPM/B23 (nucleophosmin) (from UniProt P06748 1-294)”, the figures for the binding entry (with HA-CDK4; in test [1]) were “no binding” and “binds”, respectively.
With “phospho-mimetic NPM/B23 mutant (Thr199D) (from UniProt P06748 1-294)”, in test [2], the binding entry is listed as “binds”.
